Measurements reported in PubChem BioAssay AID602196 (INSERM, 2012).
Aim: 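Modifiers of cisplatin sensitivity in A549 cells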. Cell system: human A549 lung cancer cells. Reagents: siRNA pair against human genes. Duration: 48 h transfection before cisplatin; time from cisplatin to read-out not stated. Challenge: cisplatin at a dose killing half of control-siRNA cells; exact dose and duration not given. Read-out: 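Cisplatin cell death as a shift from the 50% death seen with control siRNA; siRNAs toxic or growth-blocking alone scored 0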. Scale: two-siRNA summed score (-2 to +2): higher = both siRNAs protect from cisplatin killing; -2 means both sensitise; mean protection from cisplatin (shift in death): higher = protection from cisplatin killing. Call rule: 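Each siRNA scores 0 if harmful alone by LDH or WST-1, otherwise +1 if it reduces and -1 if it increases cisplatin killing; a gene is active when both siRNAs agree (sum +2 or -2)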. Meaning of the calls: active = both siRNAs shift cisplatin killing the same way; inactive = no consistent shift, or siRNA harmful alone.
Shown is an unselected part of about 23,000 reagents tested. Of all reagents, 455 (2%) were called active. 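Active includes both protection and sensitisation; some change values fall well beyond the stated -50 to +50 range.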 Further read-outs or replicates are left out here. The record does not give: the amount of reagent.

FECH (ferrochelatase) [SID131505558] gave two-siRNA summed score (-2 to +2) = 0; mean protection from cisplatin (shift in death) (%) = -3; inactive.
Against OR8I2 (olfactory receptor family 8 subfamily I member 2) [SID131508106], the entry reads two-siRNA summed score (-2 to +2) = 0; mean protection from cisplatin (shift in death) (%) = 0.6; inactive.
After knock-down of KCND1 (potassium voltage-gated channel subfamily D member 1) [SID131503160], the record shows two-siRNA summed score (-2 to +2) = 0; mean protection from cisplatin (shift in death) (%) = -12.6; inactive.
For CNGB1 (cyclic nucleotide gated channel subunit beta 1) [SID131503069] the deposit lists two-siRNA summed score (-2 to +2) = 0; mean protection from cisplatin (shift in death) (%) = -14.3; inactive.
For DNAH3 (dynein axonemal heavy chain 3) [SID131502347], the entry reads two-siRNA summed score (-2 to +2) = -1; mean protection from cisplatin (shift in death) (%) = -3.2; inactive.
FOXL2 (forkhead box L2) [SID131501917] scored two-siRNA summed score (-2 to +2) = -1; mean protection from cisplatin (shift in death) (%) = -6.6; inactive.
With knock-down of STIM1 (stromal interaction molecule 1) [SID131522109], the screen gave two-siRNA summed score (-2 to +2) = 1; mean protection from cisplatin (shift in death) (%) = 16.3; inactive.
LOC441847 [SID131506570] gave two-siRNA summed score (-2 to +2) = 0; mean protection from cisplatin (shift in death) (%) = -1.3; inactive.
Silencing of PDPK1 (3-phosphoinositide dependent protein kinase 1) [SID131505937] resulted in: two-siRNA summed score (-2 to +2) = 0; mean protection from cisplatin (shift in death) (%) = -2.3; inactive.
Silencing of KRT14 (keratin 14) [SID131518834] resulted in: two-siRNA summed score (-2 to +2) = 0; mean protection from cisplatin (shift in death) (%) = 30.3; inactive.
VAMP1 (vesicle associated membrane protein 1) [SID131502399] gave two-siRNA summed score (-2 to +2) = -1; mean protection from cisplatin (shift in death) (%) = -2.7; inactive.
For ZNHIT6 (zinc finger HIT-type containing 6) [SID131506213], the values are two-siRNA summed score (-2 to +2) = 0; mean protection from cisplatin (shift in death) (%) = -1.8; inactive.
PRKAA1 (protein kinase AMP-activated catalytic subunit alpha 1) [SID131522308] gave two-siRNA summed score (-2 to +2) = 1; mean protection from cisplatin (shift in death) (%) = 17.6; inactive.

Targets above whose target name starts with K or k (2):
KCND1 (potassium voltage-gated channel subfamily D member 1) [SID131503160] — two-siRNA summed score (-2 to +2): 0; mean protection from cisplatin (shift in death) (%): -12.6; outcome: inactive
KRT14 (keratin 14) [SID131518834] — two-siRNA summed score (-2 to +2): 0; mean protection from cisplatin (shift in death) (%): 30.3; outcome: inactive

The results go on.
Against NDUFA3 (NADH:ubiquinone oxidoreductase subunit A3) [SID131504585], the values are two-siRNA summed score (-2 to +2) = 0; mean protection from cisplatin (shift in death) (%) = -5; inactive.
ACOXL (acyl-CoA oxidase like) [SID131507511] showed two-siRNA summed score (-2 to +2) = 0; mean protection from cisplatin (shift in death) (%) = 0; inactive.
BRIX1 (biogenesis of ribosomes BRX1) [SID131501739] gave two-siRNA summed score (-2 to +2) = -1; mean protection from cisplatin (shift in death) (%) = -7.7; inactive.
Depletion of CCDC71L (coiled-coil domain containing 71 like) [SID131509692] gave: two-siRNA summed score (-2 to +2) = 0; mean protection from cisplatin (shift in death) (%) = 2.4; inactive.
With knock-down of LOC389650 [SID131512660], the record shows two-siRNA summed score (-2 to +2) = 0; mean protection from cisplatin (shift in death) (%) = 5.7; inactive.
Depletion of RASL10B (RAS like family 10 member B) [SID131501323] came out at: two-siRNA summed score (-2 to +2) = -1; mean protection from cisplatin (shift in death) (%) = -10.6; inactive.
After knock-down of CEP76 (centrosomal protein 76) [SID131515721], the record shows two-siRNA summed score (-2 to +2) = 0; mean protection from cisplatin (shift in death) (%) = 9.6; inactive.
PSPN (persephin) [SID131517002] showed two-siRNA summed score (-2 to +2) = 0; mean protection from cisplatin (shift in death) (%) = 12.2; inactive.
Depletion of OLFM1 (olfactomedin 1) [SID131501271] gave: two-siRNA summed score (-2 to +2) = -1; mean protection from cisplatin (shift in death) (%) = -10.9; inactive.
With knock-down of ZBED1 (zinc finger BED-type containing 1) [SID131517985], the screen gave two-siRNA summed score (-2 to +2) = 0; mean protection from cisplatin (shift in death) (%) = 15.8; inactive.
PLEKHG4B (pleckstrin homology and RhoGEF domain containing G4B) [SID131517992] gave two-siRNA summed score (-2 to +2) = 0; mean protection from cisplatin (shift in death) (%) = 15.8; inactive.
After knock-down of NMNAT1 (nicotinamide nucleotide adenylyltransferase 1) [SID131508072], the screen gave two-siRNA summed score (-2 to +2) = 0; mean protection from cisplatin (shift in death) (%) = 0.6; inactive.
Silencing of GNAT2 (G protein subunit alpha transducin 2) [SID131515497] gave: two-siRNA summed score (-2 to +2) = 0; mean protection from cisplatin (shift in death) (%) = 9.3; inactive.
TMEM70 (transmembrane protein 70) [SID131509311] scored two-siRNA summed score (-2 to +2) = 0; mean protection from cisplatin (shift in death) (%) = 2; inactive.
FKBP15 (FKBP prolyl isomerase family member 15) [SID131500822] gave two-siRNA summed score (-2 to +2) = -1; mean protection from cisplatin (shift in death) (%) = -15.6; inactive.
Against LOC441931 [SID131511797], the values are two-siRNA summed score (-2 to +2) = 0; mean protection from cisplatin (shift in death) (%) = 4.7; inactive.
After knock-down of MAGEB18 (MAGE family member B18) [SID131512508] the results were two-siRNA summed score (-2 to +2) = 0; mean protection from cisplatin (shift in death) (%) = 5.6; inactive.
Depletion of ARMC12 (armadillo repeat containing 12) [SID131512214] resulted in: two-siRNA summed score (-2 to +2) = 0; mean protection from cisplatin (shift in death) (%) = 5.2; inactive.
